Measured values reported in patent US8846633B2, “Method for inhibiting cancer stem cell like properties and chemoradioresistant properties of cancer or tumor cells with microRNA145” (Taipei Veterans General Hospital, priority 2011, dated 2014).
At least one compound was matched to its structure with a doubt left.

Tested on: Oct-4, Sox2, Nanog, Klf4, Bmi-1
Test: quantitative RT-PCR of stemness factors and Bmi-1 in the tumor graft
Assay type: in vivo, mice
Settings: combination of radiotherapy and TMZ

Cn1nnc2c(C(N)=O)ncn2c1=O [TMZ, temozolomide]
expression of stemness factors (Oct-4, Sox2, Nanog, Klf4) and Bmi-1 in the tumor graft: mild inhibitory effect
